Results on one compound are retold here after patent US10017453B2, “Pharmaceutically acceptable salts of fatty acids” (Dignity Sciences Limited, priority 2013, dated 2018).

Series [1] in a line: 8 Day Stability 40/75% RH of solids from the salt/cocrystal screen. Type of series: physicochemical. The following applies: 8 days.
For series [2] the following is noted: storage.

For `CCCCCC(O)/C=C/C=C\C/C=C\CCCCCCC(=O)O.NCCC[C@H](N)C(=O)O` (centres unmarked) [15-HETrE ornithine salt, 15-Hydroxy-eicosa-8(Z),11(Z),13(E)-trienoic acid ornithine salt], in series [1], the “8 Day Stability 40/75% RH” value came to 96% purity. In addition, the Appearance over time entry in series [2] is reported as “yellow coloration over time”.
